Assay results reported in the supplement of paper PMC4635364.
Counter-ions that a name gives are not always drawn. Some of the results follow. This data set is noisy: repeats of one test often differ as much as different tests do.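 Cells: ReNCell VM human fetal ventral-midbrain neural progenitors, differentiated mitogen-free. Blinded raters compared doublecortin-stained (early neurons) or tyrosine hydroxylase-stained (dopaminergic neurons) images with untreated wells, where 0 means no change. After repeats and both raters were averaged, compounds scoring 2 or above became hits for retesting.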

Test system: ReNCell VM
Test: neuronal differentiation score (DCX+ cell fraction vs untreated, manual image score) (score (-3 to 3)); higher = more neuronal differentiation
Details: library: LOPAC; 2 uM; 2 weeks

Neuronal differentiation score, inactive:
COc1cc2c(CCNC(C)=O)c[nH]c2cc1O [6-Hydroxymelatonin] 0
CCN1CCCC1CNC(=O)c1cc(S(N)(=O)=O)ccc1OC (single isomer, unassigned; (-)) [(-)-Sulpiride] 0
O=c1cc(N2CCOCC2)oc2c(-c3ccccc3)cccc12 [LY-294,002 hydrochloride] 0
CC1=C(/C=C/C(C)=C/C=C/C(C)=C/C(=O)Nc2ccc(O)cc2)C(C)(C)CCC1 [Retinoic acid p-hydroxyanilide] 0
Cc1ccccc1/C=C/C1=NCCN1 [Metrazoline oxalate] 0
CC(=O)N[C@@H](CS)C(=O)O [N-Acetyl-L-Cysteine] 0
NC(=O)c1cc[n+](CC2=C(C(=O)O)N3C(=O)[C@@H](NC(=O)C(c4ccccc4)S(=O)(=O)[O-])[C@H]3SC2)cc1 (stereo not given in full) [Cefsulodin sodium salt hydrate] 0
COc1cc(C(O)CO)ccc1OS(=O)(=O)O (stereo not given) [MHPG sulfate potassium] 0

Same assay, conditions: library: Prestwick; 2 uM; 2 weeks

Neuronal differentiation score, inactive:
C[C@@H]1[C@H](O)[C@@H](C)/C=C/C=C/C=C/C=C/C=C/C=C/C=C/[C@H](O[C@@H]2O[C@H](C)[C@@H](O)[C@H](N)[C@@H]2O)C[C@@H]2O[C@](O)(C[C@@H](O)C[C@@H](O)[C@H](O)CC[C@@H](O)C[C@@H](O)CC(=O)O[C@H]1C)C[C@H](O)[C@H]2C(=O)O [Amphotericin B] 0
N[C@@H](Cc1ccc(O)c(O)c1)C(=O)O [Levodopa] 0
CC1(C)S[C@@H]2[C@H](NC(=O)[C@H](N)c3ccccc3)C(=O)N2[C@H]1C(=O)OC1OC(=O)c2ccccc21 (stereo not given in full) [Talampicillin hydrochloride] 0
CCOc1ccccc1OCC1CNCCO1 (stereo not given) [Viloxazine hydrochloride] 0
CC[C@H]1OC(=O)[C@H](C)[C@@H](O[C@H]2C[C@@](C)(OC)[C@@H](O)[C@H](C)O2)[C@H](C)[C@@H](O[C@@H]2O[C@H](C)C[C@H](N(C)C)[C@H]2O)[C@](C)(O)C[C@@H](C)CN(C)[C@H](C)[C@@H](O)[C@]1(C)O [Azithromycin] 0
CO[C@@H]1[C@@H](O[C@@H]2O[C@H](C)[C@@H](O[C@H]3C[C@@](C)(O)[C@@H](OC(=O)CC(C)C)[C@H](C)O3)[C@H](N(C)C)[C@H]2O)[C@@H](CC=O)C[C@@H](C)[C@@H](O)/C=C/C=C/C[C@@H](C)OC(=O)C[C@H]1OC(C)=O [Josamycin] 0
COC(=O)Nc1nc2ccc(SC(C)C)cc2[nH]1 [Methiazole] 0

Nothing new here: an excerpt of the list.
Neuronal differentiation score, inactive:
CCOc1ccccc1OCC1CNCCO1 (stereo not given) [Viloxazine hydrochloride] 0
CC[C@H]1OC(=O)[C@H](C)[C@@H](O[C@H]2C[C@@](C)(OC)[C@@H](O)[C@H](C)O2)[C@H](C)[C@@H](O[C@@H]2O[C@H](C)C[C@H](N(C)C)[C@H]2O)[C@](C)(O)C[C@@H](C)CN(C)[C@H](C)[C@@H](O)[C@]1(C)O [Azithromycin] 0
CO[C@@H]1[C@@H](O[C@@H]2O[C@H](C)[C@@H](O[C@H]3C[C@@](C)(O)[C@@H](OC(=O)CC(C)C)[C@H](C)O3)[C@H](N(C)C)[C@H]2O)[C@@H](CC=O)C[C@@H](C)[C@@H](O)/C=C/C=C/C[C@@H](C)OC(=O)C[C@H]1OC(C)=O [Josamycin] 0
